For this test, the target named is T1, CRK2-YFP (cysteine-rich receptor-like protein kinase CRK2 tagged with YFP) (Arabidopsis thaliana) (UniProt Q9CAL3).
T1 sequence: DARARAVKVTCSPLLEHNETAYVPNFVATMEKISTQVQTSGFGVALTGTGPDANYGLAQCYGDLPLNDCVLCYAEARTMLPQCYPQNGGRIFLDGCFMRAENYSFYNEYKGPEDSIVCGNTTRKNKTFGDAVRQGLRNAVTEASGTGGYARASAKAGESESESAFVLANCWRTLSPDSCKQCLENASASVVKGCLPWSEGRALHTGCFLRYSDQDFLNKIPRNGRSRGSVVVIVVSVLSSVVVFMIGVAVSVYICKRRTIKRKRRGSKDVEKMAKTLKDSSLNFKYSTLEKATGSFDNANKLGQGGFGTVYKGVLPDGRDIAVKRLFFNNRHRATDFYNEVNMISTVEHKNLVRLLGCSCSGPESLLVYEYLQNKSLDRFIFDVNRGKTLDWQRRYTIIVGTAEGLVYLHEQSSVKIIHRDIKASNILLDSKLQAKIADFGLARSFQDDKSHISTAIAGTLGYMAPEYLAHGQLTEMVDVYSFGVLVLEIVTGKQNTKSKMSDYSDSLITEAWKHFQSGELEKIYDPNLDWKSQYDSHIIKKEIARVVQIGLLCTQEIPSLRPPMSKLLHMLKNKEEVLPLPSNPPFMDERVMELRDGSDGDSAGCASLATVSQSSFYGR
Kind of test: co-IP.

Amino acid sequences for entries named in this document (tags omitted).
UniProt Q9FIJ0: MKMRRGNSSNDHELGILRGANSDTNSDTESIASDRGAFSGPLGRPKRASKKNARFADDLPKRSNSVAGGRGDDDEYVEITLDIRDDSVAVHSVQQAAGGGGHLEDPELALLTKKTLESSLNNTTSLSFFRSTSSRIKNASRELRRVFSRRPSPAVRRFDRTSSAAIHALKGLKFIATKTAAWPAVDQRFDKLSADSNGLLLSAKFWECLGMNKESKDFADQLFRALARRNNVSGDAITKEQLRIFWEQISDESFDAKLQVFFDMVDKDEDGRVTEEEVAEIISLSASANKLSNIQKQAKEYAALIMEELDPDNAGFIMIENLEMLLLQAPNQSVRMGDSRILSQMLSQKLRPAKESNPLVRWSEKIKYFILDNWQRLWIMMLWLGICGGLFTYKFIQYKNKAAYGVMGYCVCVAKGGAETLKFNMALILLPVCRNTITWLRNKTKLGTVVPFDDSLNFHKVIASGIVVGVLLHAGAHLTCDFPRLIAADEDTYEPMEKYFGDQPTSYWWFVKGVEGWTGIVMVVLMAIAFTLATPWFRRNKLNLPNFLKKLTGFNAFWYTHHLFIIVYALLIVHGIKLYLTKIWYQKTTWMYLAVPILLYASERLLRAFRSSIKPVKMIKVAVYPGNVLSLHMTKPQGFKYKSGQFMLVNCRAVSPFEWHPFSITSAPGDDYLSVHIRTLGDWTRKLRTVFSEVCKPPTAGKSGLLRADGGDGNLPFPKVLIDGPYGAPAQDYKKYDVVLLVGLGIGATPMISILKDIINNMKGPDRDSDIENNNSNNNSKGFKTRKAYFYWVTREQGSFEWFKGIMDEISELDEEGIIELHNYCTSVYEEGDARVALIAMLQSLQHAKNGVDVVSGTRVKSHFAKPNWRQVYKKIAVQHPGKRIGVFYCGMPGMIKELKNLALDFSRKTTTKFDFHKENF

Binding data for one substance are collected here from doi:10.1101/618819.

Results are given in words; binding and its absence hold for the method and conditions named. In cells and extracts the contact can be indirect. Some results given as binding are weak or reduced against the parent protein; the word gives no strength. Sequences can lack the tags named with a protein.

“FLAG-RBOHD (NADPH oxidase respiratory burst oxidase homolog D with FLAG tag) (from UniProt Q9FIJ0 1-921) (enzyme)”: the binding entry was “binds”.
